EP0755382B1, “QUINOLONE DERIVATIVE FOR TREATMENT OF URINARY INCONTINENCE” (AstraZeneca AB, priority 1994, dated 1995)
At least one structure is not confirmed: it was looked up by name or label, or the drawing left a doubt.

System: guinea pig detrusor strips
Assay: second in vitro test: relaxation of guinea pig bladder detrusor strips contracted with 80 mM KCl
Format: cell-based, guinea pigs
Conditions: 80 mM KCl (second test) versus 15 mM KCl (first test)
Description: This second in vitro test is similar to the one described above with regard to tissue preparation and data acquisition. However, the following exceptions are noted. In this second test, the contraction of the detrusor strips during priming and after the equilibration period is achieved with 80 mM instead of 15 mM KCl (total concentration in the bath).
Typical calcium channel blockers like nifedipine, nimodipine, isradipine, and verapamil are able to relax and reduce the myogenic activity of guinea pig detrusor strips in both tests by virtue of their blocking action on calcium channels.

| SMILES | potency in the second test compared with the first test |
| --- | --- |
| COC(=O)C1=C(C)NC(C)=C(C(=O)OC)C1c1ccccc1[N+](=O)[O-] [nifedipine] | more potent in the second test |
| COCCOC(=O)C1=C(C)NC(C)=C(C(=O)OC(C)C)C1c1cccc([N+](=O)[O-])c1 (centres unmarked) [nimodipine] | more potent in the second test |
